# Among all 320,000 compounds or so, about 2,100 (0.66%) were called active. This list was built around the results that the source calls inconclusive (neither active nor inactive); the mix of calls is not that of the screen. Calls follow the shape of the dose curve; as a rule, active = well fitted inhibition curve with a large enough effect in the signal ratio, with a control signal flat (not every such curve was filed as active); inconclusive = small, poorly fitted or top-dose-only effect, or effect the other way, or a change in a side signal; inactive = flat fitted curve, though single readings scatter; the % refers to the signal ratio. A potency beside an inconclusive call is a rough fit, not a confirmed value.
# Assay: qHTS Assay for Lipid Storage Modulators in Drosophila S3 Cells
# Details: BODIPY lipid droplet fluorescence, 18-24 h, cells fed with added oleic acid; lipid storage change, negative = inhibition: at 46.1 µM (top of the series) unless noted
# How it was run: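 Drosophila S3 cells got compounds at several concentrations plus oleic acid (400 uM solution). Laser-scanning cytometry with 488 nm excitation read lipid droplets at 500-530 nm and cells at 575-640 nm. Percent activity was relative to 20 uM Triacsin C.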
# % is scaled to controls: 0 for no effect and ±100 for the full control effect; potency is read from the fitted curve at half-maximal effect.
SMILES,Potency,"lipid storage change, negative = inhibition"
CCOc1ccc(NC(=O)CN(C)C(=O)CC2CCCCC2)cc1OCC,"inconclusive: 0.0052 µM [activator, full curve, poor fit]",–
Cc1cccc(NC(=O)c2ccc(C3SCC(=O)N3CCc3ccccc3)cc2)c1 (stereo not given),"inconclusive: 32.6 µM [falling, single point]",–
CCNc1nc(NCC)n2c(SC(C(=O)Nc3cc(C)ccc3C)c3ccccc3)nnc2n1 (stereo not given),–,inconclusive: 23.9%
Cc1ccc(S(=O)(=O)N[C@H](C(=O)OCC(=O)N2N=C(c3ccc(Cl)cc3)CC2c2ccco2)C(C)C)cc1 (stereo not given in full),"inconclusive: 29.1 µM [falling, single point]",–
CCCCNC(=S)Nc1ccccc1Cc1ccccc1,–,inconclusive: 19.2%
O=C(CN(c1ccc(Cl)c(C(F)(F)F)c1)S(=O)(=O)c1ccccc1)N1CCOCC1,–,inconclusive: 12%
COc1cc(Br)cc(C2C3=C(CCCC3=O)N(c3ccc(F)cc3)C3=C2C(=O)CCC3)c1O,–,inconclusive: -27.2%
COc1ccc(-c2[nH]ncc2CN2CCCN(C(=O)c3ccco3)CC2)cc1F,–,inconclusive: 3.81%
CCCN(CCC)CCCNC(=O)c1cn(CC)c2ccc(S(=O)(=O)N3CCOCC3)cc2c1=O,–,inactive
CC(=O)Nc1ccc(NC(=O)C(C)c2cccc(C(=O)c3ccccc3)c2)cc1 (stereo not given),–,inconclusive: 28.8%
Cc1ccccc1NC(=O)COc1coc(CN2CCCc3ccccc32)cc1=O,–,inconclusive: 37.5% [at 0.0737 µM]
Cc1[nH]n(-c2cccc([N+](=O)[O-])c2)c(=O)c1-c1ccccc1,–,inconclusive: -17%
Cc1ccc2c(c1)C(c1ccccc1)N(C(=O)c1c(F)cccc1Cl)CC(=O)N2 (stereo not given),–,inconclusive: -18.3%
CCSc1nnc(-c2cc(Br)ccc2N=Cc2c(C)[nH]n(-c3ccccc3)c2=O)c(=O)[nH]1,–,inconclusive: -29.6%
COc1cc(OC)cc(C(=O)Nc2ncc3c(n2)CC(C)CC3=O)c1 (stereo not given),–,inconclusive: 7.26%
O=c1cc(CN2CCc3ccccc32)nc2sccn12,"inconclusive: 29.1 µM [rising, single point]",–
O=C1CN(C(=O)c2ccccc2)C(c2ccccc2)c2cc(F)ccc2N1 (stereo not given),–,inconclusive: -47.7%
COc1cc(C(=O)OC(C)C(=O)NC(=O)NC2CCCCC2)ccc1OC(F)F (stereo not given),–,inconclusive: 2.35%
CCOC(=O)c1cc(C)sc1/N=C/C1C(=O)CC(C)(C)CC1=O,–,inconclusive: -83.6%
C=CCOC(=O)C1=C[C@@H](c2coc3ccccc3c2=O)C[C@@H](OCc2ccc(CO)cc2)O1,–,inconclusive: 11.7%

# Quoted at random: 2 entries already listed, in no set order.
SMILES,Potency,"lipid storage change, negative = inhibition"
O=C(CN(c1ccc(Cl)c(C(F)(F)F)c1)S(=O)(=O)c1ccccc1)N1CCOCC1,–,inconclusive: 12%
O=C1CN(C(=O)c2ccccc2)C(c2ccccc2)c2cc(F)ccc2N1 (stereo not given),–,inconclusive: -47.7%

# Source: PubChem BioAssay AID2685 (National Center for Advancing Translational Sciences (NCATS), 2010)
